The chains behind the UniProt entries cited, without tags or fusion partners. Where a name states a change or a piece, a line headed by the entry shows the natural chain unless it says otherwise.
UniProt O17695: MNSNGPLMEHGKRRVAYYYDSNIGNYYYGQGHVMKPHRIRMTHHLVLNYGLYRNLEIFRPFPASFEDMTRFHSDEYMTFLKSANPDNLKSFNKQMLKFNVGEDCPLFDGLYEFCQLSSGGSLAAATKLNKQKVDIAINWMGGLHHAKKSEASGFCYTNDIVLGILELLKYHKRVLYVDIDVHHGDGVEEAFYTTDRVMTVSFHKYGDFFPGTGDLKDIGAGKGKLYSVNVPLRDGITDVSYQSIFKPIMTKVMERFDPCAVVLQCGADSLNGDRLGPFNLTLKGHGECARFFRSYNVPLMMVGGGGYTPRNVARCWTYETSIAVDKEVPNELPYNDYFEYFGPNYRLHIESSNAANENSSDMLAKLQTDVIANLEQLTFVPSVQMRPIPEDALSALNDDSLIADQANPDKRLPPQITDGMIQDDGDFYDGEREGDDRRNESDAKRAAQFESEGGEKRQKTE
UniProt Q22343: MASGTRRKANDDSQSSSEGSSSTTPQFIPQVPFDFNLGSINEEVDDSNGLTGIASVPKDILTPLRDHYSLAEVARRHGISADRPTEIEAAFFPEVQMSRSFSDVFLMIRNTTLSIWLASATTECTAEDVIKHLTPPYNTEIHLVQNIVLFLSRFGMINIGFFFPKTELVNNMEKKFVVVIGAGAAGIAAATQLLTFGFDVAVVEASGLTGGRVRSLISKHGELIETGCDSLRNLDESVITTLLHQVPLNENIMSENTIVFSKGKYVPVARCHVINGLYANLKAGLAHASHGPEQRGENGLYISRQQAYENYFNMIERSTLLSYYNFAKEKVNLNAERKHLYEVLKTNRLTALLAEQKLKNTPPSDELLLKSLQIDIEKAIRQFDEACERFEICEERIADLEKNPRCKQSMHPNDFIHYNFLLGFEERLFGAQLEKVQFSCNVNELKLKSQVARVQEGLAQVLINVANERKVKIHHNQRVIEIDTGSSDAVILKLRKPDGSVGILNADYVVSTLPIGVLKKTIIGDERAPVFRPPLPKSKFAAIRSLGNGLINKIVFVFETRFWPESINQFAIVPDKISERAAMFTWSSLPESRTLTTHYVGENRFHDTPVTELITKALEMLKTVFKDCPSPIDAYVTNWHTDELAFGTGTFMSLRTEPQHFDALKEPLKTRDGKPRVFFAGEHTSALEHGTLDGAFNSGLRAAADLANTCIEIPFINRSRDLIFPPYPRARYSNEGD

According to paper PMC4787770:

T1: HPL-1::GFP (C. elegans) (UniProt G5EET5)
T1 sequence: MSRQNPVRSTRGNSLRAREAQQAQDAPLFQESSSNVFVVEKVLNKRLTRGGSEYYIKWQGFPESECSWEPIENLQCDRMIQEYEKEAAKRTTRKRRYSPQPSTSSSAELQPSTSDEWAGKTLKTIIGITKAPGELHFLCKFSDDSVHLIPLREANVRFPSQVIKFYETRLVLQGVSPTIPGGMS


target: T1, HPL-1::GFP (C. elegans); assay: affinity purification with mass spectrometry; about 200 mg total protein from mixed eggs and L1 of the hpl-1::GFP line, Magnetic GFP-Trap beads, elution with acidic glycine, gel slices, LC-MS/MS; hits of the controls (empty beads; wild-type extract on GFP beads) subtracted

Molecule	binding
HDA-1 (from UniProt O17695 1-461)	binds
HMG-11	binds
LSD-1 (from UniProt Q22343)	binds
ZK185.1	binds
SPR-5 (protein, UniProt Q9XWP6 1-770) MSSDTGSEYLDEEIRGDELGPSIDDNALAAAASAARLPFDRPTDHELAFFPELWEHKTAVEVFLLLRNSTLATWQYNPLKECTALDVRNNVFPPFNSDLDLIQNIVHYLSRHGLINFGRYVRSTKISRFLVRDRRSVIVIGAGAAGISAATQLESFGFDVIVLEARNCIGGRIHSFKSKSGEIMETGGDTLRKIEDSPMATLLHQVNFEEHGVFDFTSVFVEGRPLNEEKIHLFLDHYKSAHGALNYQAHQCEHRDDQGSFISRQQAYENLLSMCERGTLIKYYNFCKSLETVARAREHHFNQMKQLRMTALMAENQLKKMEEEGNLEQDPVLRRSLKRDIATSLEKFEEVADAFETADNHWQRLNEHPQAKQYMHPGSEFATFNFMLGFEEYLVGAQLEKVQFSCDSMQNKENGVAARLTEGIAELLTQLSEKRKLDIRLKHRVLDIDYSGFEHVLLKVQRENGDIEEMKAAFVVSTLPIGVLKKTIIADERAPTFTPSLPDKKVEAIRNIGCGSVNKCILEFDRVFWTANGGRNQFVTVSPNIKTRGSMNIWSSVPGSKVLCTYIVGEEAMLELPDDVIIQNAMINLQKAFGNNCPRAPISAHITRWHDDELAFGSGAFMSLRTETTSFDDVMEPLKTSDGMSRVYFAGEHTCSSYTSTIQGAWMSGARAAADISNDHIGIGFVDISGTRGQRGDEEEELLIEVDIDGKIPEKDENEAVADIPNAPNAPNAQKPEEIPKIAEEIELVAEAEKAEKAEVQLEPLVPTVE	binds

Continued, values first:

binding	Molecule
binds	HPL-2, endogenous (protein, UniProt G5EDE2 1-175) MSSKSTKRAKIEDPKDNVFMVEKVLDKRTGKAGRDEFLIQWQGFPESDSSWEPRENLQCVEMLDEFEREFSKREKPIRKRHSQKPEPSEDQADPEEDKDEKKETNQNDKFSLEGKQLKCIVGLTKGPGELHFLCKFSDDTARLLPAKEVNSRYPSQVIRYYESKLTIQDPKADEL
binds	RCOR-1 (protein, UniProt Q95Y41 1-564) MDSYTSSDEDASRKENISDEGLNMLNASPEPMEEDDPEEQAEQEEETSRMARPIRSMRKRETTSGESMGDEDEDLEDEEDEDEEAEAREHHESGAHDTSFSNPLSNVDNLIHVGTEYQAIIQPTAEQLEKEPCRDQQIWAFPDEMNENRLTEYISEATGRYQLPIDRALFILNKQSNDFDAAMVQAMRRKEIHDDWTAEEISLFSTCFFHFGKRFKKIHAAMPQRSLSSIIQYYYNTKKVQNYKTMINVHLNETDTYDELFKEVNHLERVPSGYCENCNAKSDLLILNRVMSRHECKPCILYFRLMRVPRPASLRALTKRRQRVLCPEYMKIYVYGYLELMEPANGKAIKRLGIGKEKEEDDDIMVVDDCLLRKPSGPYIVEQSIEADPIDENTCRMTRCFDTPAALALIDNIKRKHHMCVPLVWRVKQTKCMEENEILNEEARQQMFRATMTYSRVPKGEIANWKKDMMALKGRFERFTPELDTTATNGNRSGKVRINYGWSPEEKKNAIRCFHWYKDNFELIAELMATKTVEQIKKFYMDNEKLILESIDTYRAELKSKLGK

Results are given in words; binding and its absence hold for the method and conditions named. Binding seen in cells or lysates may run through a third protein. These calls come from enrichment with a bait or labelling near it, and not all partners need be listed. Sequences can lack the tags named with a protein.
